Assay results from patent US9820988B2, “Treatment of epileptic disorders in feline animals” (Boehringer Ingelheim Vetmedica GmbH, priority 2014, dated 2017).
At least one compound was matched to its structure with a doubt left.

What was measured:
treated cats = details: cited from earlier work
[1] = system: cats with drug resistant epilepsy; assay: Efficacy 4: cats with drug-resistant (phenobarbital) epileptic disorders switched to imepitoin; assay type: in vivo, cat; details: phenobarbital from 3 mg/kg bodyweight twice daily up to the maximum tolerated dose
Procedure: Cats with epileptic disorders are treated with increasing doses of phenobarbital, starting from 3 mg/kg bodyweight twice daily up to the maximum tolerated dose. […] According to this treatment failure this represents drug-resistant epileptic disorders. The treatment of these cats with drug resistant epilepsy is now changed to imepitoin, provided at high doses as for example 30 mg/kg bodyweight twice daily.

## CCC1(c2ccccc2)C(=O)NC(=O)NC1=O [phenobarbital]
Treated cats
  rate of poor responding epileptic cats: ca. 30%
[1]
  seizure control: seizures remain poorly controlled
